PMC1526748

Amino acid sequences for entries named in this document (tags omitted). A change or cut given only in a name is not applied to a line headed by its entry.
UniProt P19793: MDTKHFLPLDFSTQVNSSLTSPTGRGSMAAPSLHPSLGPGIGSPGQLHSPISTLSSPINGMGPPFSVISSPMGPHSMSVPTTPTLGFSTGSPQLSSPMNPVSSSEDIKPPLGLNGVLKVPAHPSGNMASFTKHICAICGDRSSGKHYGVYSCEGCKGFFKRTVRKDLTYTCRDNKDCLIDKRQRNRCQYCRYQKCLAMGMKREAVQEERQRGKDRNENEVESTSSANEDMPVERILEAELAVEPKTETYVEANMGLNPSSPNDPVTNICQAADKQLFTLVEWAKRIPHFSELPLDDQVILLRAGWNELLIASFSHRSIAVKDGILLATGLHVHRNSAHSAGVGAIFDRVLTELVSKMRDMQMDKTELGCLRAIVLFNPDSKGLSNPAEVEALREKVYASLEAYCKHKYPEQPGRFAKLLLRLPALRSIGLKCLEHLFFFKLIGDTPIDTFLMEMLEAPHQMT
UniProt Q06413, whole entry: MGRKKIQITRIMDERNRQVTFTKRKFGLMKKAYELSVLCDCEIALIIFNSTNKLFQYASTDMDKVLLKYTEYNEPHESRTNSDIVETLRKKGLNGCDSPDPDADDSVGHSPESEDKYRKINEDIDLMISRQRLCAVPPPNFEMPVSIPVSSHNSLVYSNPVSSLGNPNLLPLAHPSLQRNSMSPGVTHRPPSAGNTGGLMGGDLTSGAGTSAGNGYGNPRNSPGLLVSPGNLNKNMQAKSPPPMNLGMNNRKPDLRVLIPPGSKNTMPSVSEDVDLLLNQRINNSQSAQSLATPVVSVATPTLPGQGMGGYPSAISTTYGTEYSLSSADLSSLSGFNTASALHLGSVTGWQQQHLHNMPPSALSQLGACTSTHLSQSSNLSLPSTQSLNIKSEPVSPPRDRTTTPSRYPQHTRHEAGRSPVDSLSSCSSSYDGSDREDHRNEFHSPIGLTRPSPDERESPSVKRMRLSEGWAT
UniProt Q02078: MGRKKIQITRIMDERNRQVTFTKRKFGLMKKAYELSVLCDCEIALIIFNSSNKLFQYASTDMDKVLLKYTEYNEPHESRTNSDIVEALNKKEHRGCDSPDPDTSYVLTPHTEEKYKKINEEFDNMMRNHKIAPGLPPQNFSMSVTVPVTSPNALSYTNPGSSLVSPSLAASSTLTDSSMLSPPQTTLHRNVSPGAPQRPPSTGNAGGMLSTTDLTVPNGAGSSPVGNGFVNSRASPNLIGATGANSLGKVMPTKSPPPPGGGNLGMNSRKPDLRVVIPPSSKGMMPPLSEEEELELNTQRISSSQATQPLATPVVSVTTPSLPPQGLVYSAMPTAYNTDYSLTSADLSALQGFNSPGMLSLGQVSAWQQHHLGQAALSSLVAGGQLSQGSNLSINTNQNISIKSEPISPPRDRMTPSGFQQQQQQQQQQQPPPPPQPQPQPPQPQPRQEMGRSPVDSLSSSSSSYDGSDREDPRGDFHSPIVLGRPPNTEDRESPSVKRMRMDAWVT

Key:
[1] = target: RXRalpha (Homo sapiens (TC-7 clone of Caco-2)) (UniProt P19793); assay: EMSA supershift; conditions: anti-RXRalpha, weak supershift, complex diminished; 5-15 ug TC-7 nuclear extract, 25 mM HEPES (pH not stated), 100 mM KCl, 0.1% NP-40, 1 mM DTT, 5% glycerol, 1 ug poly(dI-dC), 20 fmol probe in 20 ul; protein in an extract; label: 5'-32P
[2] = target: PPARgamma (Homo sapiens (TC-7 clone of Caco-2)) (UniProt P37231); assay: EMSA with antibody (complex diminished); conditions: anti-PPARgamma; 5-15 ug TC-7 nuclear extract, 25 mM HEPES (pH not stated), 100 mM KCl, 0.1% NP-40, 1 mM DTT, 5% glycerol, 1 ug poly(dI-dC), 20 fmol probe in 20 ul; protein in an extract; label: 5'-32P
[3] = target: MEF2C (Homo sapiens (TC-7 clone of Caco-2)) (UniProt Q06413); assay: EMSA supershift; conditions: anti-MEF2C; 5-15 ug TC-7 nuclear extract, 25 mM HEPES (pH not stated), 100 mM KCl, 0.1% NP-40, 1 mM DTT, 5% glycerol, 1 ug poly(dI-dC), 20 fmol probe in 20 ul; protein in an extract; label: 5'-32P
[4] = target: T1, MEF2D (Homo sapiens (TC-7 clone of Caco-2)) (UniProt Q14814); assay: EMSA supershift; conditions: anti-MEF2D; 5-15 ug TC-7 nuclear extract, 25 mM HEPES (pH not stated), 100 mM KCl, 0.1% NP-40, 1 mM DTT, 5% glycerol, 1 ug poly(dI-dC), 20 fmol probe in 20 ul; protein in an extract; label: 5'-32P
T1 sequence (looked up, limits assumed): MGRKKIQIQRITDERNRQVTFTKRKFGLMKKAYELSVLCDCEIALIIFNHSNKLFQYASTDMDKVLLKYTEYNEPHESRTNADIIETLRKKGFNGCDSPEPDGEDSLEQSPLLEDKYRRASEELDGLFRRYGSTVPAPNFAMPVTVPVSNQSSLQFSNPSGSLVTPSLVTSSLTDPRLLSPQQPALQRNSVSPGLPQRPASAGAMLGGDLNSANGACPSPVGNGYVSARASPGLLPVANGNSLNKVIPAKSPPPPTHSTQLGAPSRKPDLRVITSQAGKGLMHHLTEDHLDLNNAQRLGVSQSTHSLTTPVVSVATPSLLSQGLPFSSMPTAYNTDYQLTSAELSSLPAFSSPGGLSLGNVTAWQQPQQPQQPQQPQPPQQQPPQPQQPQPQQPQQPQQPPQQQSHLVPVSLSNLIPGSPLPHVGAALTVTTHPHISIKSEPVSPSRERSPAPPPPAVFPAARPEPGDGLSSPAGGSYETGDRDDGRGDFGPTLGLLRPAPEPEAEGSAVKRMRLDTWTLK

[5] = target: MEF2A (Homo sapiens (TC-7 clone of Caco-2)) (UniProt Q02078); assay: EMSA with antibody (complex diminished); conditions: anti-MEF2A; 5-15 ug TC-7 nuclear extract, 25 mM HEPES (pH not stated), 100 mM KCl, 0.1% NP-40, 1 mM DTT, 5% glycerol, 1 ug poly(dI-dC), 20 fmol probe in 20 ul; protein in an extract; label: 5'-32P
[6] = target: MEF2C (Homo sapiens (TC-7 clone of Caco-2)) (UniProt Q06413); assay: EMSA; conditions: mutated probe, complex abolished; 5-15 ug TC-7 nuclear extract, 25 mM HEPES (pH not stated), 100 mM KCl, 0.1% NP-40, 1 mM DTT, 5% glycerol, 1 ug poly(dI-dC), 20 fmol probe in 20 ul; protein in an extract; label: 5'-32P

Sequence: GCTTGGAAATTAACCTTTAACCAAACAT (double strand) [BCMO1 PPRE wild type]
- binding result [1]: binds
- binding result [2]: binds

Sequence: CTCTCTGCTTATTTAGAACCTAGTC (double strand) [BCMO1 MEF2 wild type]
- binding result [3]: binds
- binding result [4]: binds
- binding result [5]: binds

Sequence: CTCTCTGCTTGTTTACAACCTAGTC (double strand) [BCMO1 MEF2 mutated]
- binding result [6]: no binding

For at least one entry, the source does not settle the construct or the ends of the probe. Results from cells or extracts need not show a direct contact. For part of these data: Negatives hold for the conditions tested. For part of these data: At least one verdict was read from the data and is not stated in words by the source. For part of these data: Tags and fusion partners may be left off the protein sequences shown.
